Results from PubChem BioAssay AID330 (DTP/NCI, 2004).
The list shows only some results of the screen, not a fair sample: it gathers tests that were run many times, whatever their T/C, doses with no T/C, and many T/C values between a quarter and a half above the control. Further doses and runs are listed elsewhere. T/C: endpoint of the treated group in % of that of the vehicle group. Some entries give survivors of the animals treated and no T/C: the source files T/C as zero there, which appears to mark a toxic dose or a test without result, not a measured value. Some survivor counts are full or nearly so, which does not show that the dose was tolerated: survival well below the control is almost never listed, so the zero probably covers shortened survival too. Counts of survivors are from the toxicity check (mostly the fifth day) where no day follows; animals may have died later. Schedule codes are those of the source, taken here to give the interval after Q, in days (D) or hours (H), and the number of doses after X. Some entries hold several experiments; their values stand side by side, smallest first. Where survival is the endpoint, this PubChem deposit counts one and a half times the control or more as active, and values a quarter to a half above the control carry no call in these data; other NCI protocols may use other cut-offs. Counts like (3×) stand for listed records that agree. Some T/C values carry the count of animals alive at the toxicity check (mostly the fifth day); without a count, all were alive then.

System: P388 leukemia ip, CD2F1 mice, survival T/C
Experiment: NCI In Vivo Anticancer Drug Screen. Data for tumor model P388 Leukemia (intraperitoneal) in CD2F1 (CDF1) mice
Settings: T/C endpoint: median survival time, higher T/C = longer survival
[1] = dose: 200.0 mg/kg/injection, schedule: Q01DX005 (ip), vehicle: saline
[2] = dose: 200.0 mg/kg/injection, schedule: Q01DX009 (ip), vehicle: saline with Tween-80
[3] = dose: 100.0 mg/kg/injection, schedule: Q01DX005 (ip), vehicle: Klucel (hydroxypropylcellulose) (HPC)
[4] = dose: 200.0 mg/kg/injection, schedule: Q01DX005 (ip), vehicle: Klucel (hydroxypropylcellulose) (HPC)
[5] = dose: 240.0 mg/kg/injection, schedule: Q01DX005 (ip), vehicle: Klucel (hydroxypropylcellulose) (HPC)
[6] = dose: 100.0 mg/kg/injection, schedule: Q01DX009 (ip), vehicle: saline with Tween-80
[7] = dose: 100.0 mg/kg/injection, schedule: Q01DX009 (ip), vehicle: saline
[8] = dose: 200.0 mg/kg/injection, schedule: Q01DX009 (ip), vehicle: saline
[9] = dose: 400.0 mg/kg/injection, schedule: Q01DX009 (ip), vehicle: saline with Tween-80
[10] = dose: 60.0 mg/kg/injection, schedule: Q01DX005 (ip), vehicle: Klucel (hydroxypropylcellulose) (HPC)
[11] = dose: 120.0 mg/kg/injection, schedule: Q01DX005 (ip), vehicle: Klucel (hydroxypropylcellulose) (HPC)
[12] = dose: 240.0 mg/kg/injection, schedule: Q01DX005 (ip), vehicle: saline with Tween-80
[13] = dose: 25.0 mg/kg/injection, schedule: Q01DX009 (ip), vehicle: saline
[14] = dose: 400.0 mg/kg/injection, schedule: Q01DX001 (ip), vehicle: saline with Tween-80

COc1cc(NCCN(C)C(C)Cc2ccccc2)c2ncccc2c1 (stereo unspecified)
survivor count [1]: 0 of 5

Nc1c(OS(=O)(=O)c2ccccc2)cccc1OS(=O)(=O)c1ccccc1
survivor count [2]: 6 of 6

COc1cc(NCCCC2CCCCN2)c2ncccc2c1OC (stereo unspecified)
survivor count (dose: 25.0 mg/kg/injection, schedule: Q01DX005 (ip), vehicle: saline): 2 of 5
survivor count (dose: 50.0 mg/kg/injection, schedule: Q01DX005 (ip), vehicle: saline): 0 of 5
survivor count (dose: 100.0 mg/kg/injection, schedule: Q01DX005 (ip), vehicle: saline): 0 of 5
survivor count [1]: 0 of 5

CNc1[nH]c(=O)[nH]c(=O)c1[N+](=O)[O-]
survivor count [3]: 0 of 5
survivor count [4]: 0 of 5

Cc1c(Cl)cccc1NC(=O)c1cccc([N+](=O)[O-])c1O
survivor count [2]: 3 of 6

S=C1NCCOc2ccccc21
survivor count [5]: 1 of 6

O=c1oc2ccccc2c(O)c1C=Nc1ccccc1
survivor count (dose: 50.0 mg/kg/injection, schedule: Q01DX009 (ip), vehicle: saline with Tween-80): 4 of 6 and 6 of 6
survivor count [6]: 0 of 6
survivor count [2]: 0 of 6

Cc1cc(Br)c(NC(=O)c2c(-c3c(Cl)cccc3Cl)noc2C)c(Br)c1
survivor count [5]: 6 of 6

Cn1cnc([N+](=O)[O-])c1Sc1nc(N)nc2nc[nH]c12
T/C (dose: 16.5 mg/kg/injection, schedule: Q01DX009 (ip), vehicle: saline with Tween-80): 127 % of control
T/C (dose: 25.0 mg/kg/injection, schedule: Q01DX009 (ip), vehicle: saline sonified): 136 % of control
survivor count (dose: 37.5 mg/kg/injection, schedule: Q01DX009 (ip), vehicle: saline with Tween-80): 6 of 6
survivor count (dose: 100.0 mg/kg/injection, schedule: Q01DX009 (ip), vehicle: saline sonified): 6 of 6
survivor count (dose: 200.0 mg/kg/injection, schedule: Q04DX003 (ip), vehicle: Klucel (hydroxypropylcellulose) (HPC)): 6 of 6
survivor count (dose: 400.0 mg/kg/injection, schedule: Q04DX003 (ip), vehicle: Klucel (hydroxypropylcellulose) (HPC)): 6 of 6

CC(C)[N+](C)(C)CC(O)COc1ccccc1-c1ccccc1 (stereo unspecified)
survivor count [7]: 0 of 6
survivor count [8]: 0 of 6

CN(C)CCOc1ccccn1
survivor count [8]: 3 of 6
survivor count (dose: 400.0 mg/kg/injection, schedule: Q01DX009 (ip), vehicle: saline): 0 of 6

CCCC(C)(O)/C(C)=N/O (stereo unspecified)
survivor count [6]: 6 of 6

CC1=CC(=O)[C@@H](O)[C@]2(C)[C@H]3[C@@]4(O)OC[C@]35[C@H]([C@@H](CO)[C@H]4O)[C@@H](OC3OC(CO)C(O)C(O)C3O)C(=O)O[C@@H]5C[C@@H]12 (stereo partly specified)
survivor count (dose: 3.75 mg/kg/injection, schedule: Q01DX005 (ip), vehicle: Klucel (hydroxypropylcellulose) (HPC)): 2 of 6
survivor count (dose: 7.5 mg/kg/injection, schedule: Q01DX005 (ip), vehicle: Klucel (hydroxypropylcellulose) (HPC)): 4 of 6
survivor count (dose: 15.0 mg/kg/injection, schedule: Q01DX005 (ip), vehicle: Klucel (hydroxypropylcellulose) (HPC)): 1 of 6

O=C(CCCN1CCC(C(=O)c2ccc(F)cc2)CC1)c1ccc(F)cc1
survivor count [6]: 4 of 6
survivor count [2]: 0 of 6

O=C(CCl)N1c2ccccc2Sc2c1ccc1ccccc21
T/C (dose: 50.0 mg/kg/injection, schedule: Q01DX009 (ip), vehicle: suspension in saline): 125 % of control [5 of 6 alive]

Cc1ccc(S(=O)(=O)CC(=O)c2ccc(Br)cc2)cc1
survivor count [2]: 6 of 6
survivor count [9]: 6 of 6

Cc1ccc2c(c1O)NC(O)c1cccn1C2=O (stereo unspecified)
survivor count (dose: 40.0 mg/kg/injection, schedule: Q01DX005 (ip), vehicle: distilled water + Tween-80): 6 of 6

O=C(CN1CCCCCC1)Nc1ccc2c(c1)C(=O)c1ccc(NC(=O)CN3CCCCCC3)cc1C2=O
survivor count [4]: 6 of 6

C/C(=N/NC(N)=S)c1cn[nH]c1C
survivor count [10]: 1 of 6
survivor count [11]: 0 of 6
survivor count [5]: 0 of 6

OCC12C=COC1OC2(c1ccccc1)c1ccccc1 (stereo unspecified)
survivor count (dose: 120.0 mg/kg/injection, schedule: Q01DX005 (ip), vehicle: saline with Tween-80): 6 of 6
survivor count [12]: 1 of 6

O=C(O)CS(=O)(=O)CC(=O)O
survivor count [7]: 6 of 6
survivor count [8]: 3 of 6

Cc1csc(=S)n1C
survivor count [8]: 6 of 6

COc1cccc(/C=C2/C(=O)N(c3ccc([N+](=O)[O-])cc3)N=C2C)c1
survivor count [10]: 6 of 6
survivor count [11]: 6 of 6

CCOC(=O)/C(Cl)=C(\C)Nc1nc2c(ccc3ccccc32)s1
survivor count [12]: 6 of 6

COc1ccc2c(c1OC)C[C@@H]1c3c(cc4c(c3-2)OCO4)CCN1C
survivor count [3]: 0 of 6
survivor count [4]: 0 of 6

CCOc1ccc(Br)cc1/C=N/NS(=O)(=O)c1ccc(C)cc1
T/C (dose: 118.0 mg/kg/injection, schedule: Q01DX009 (ip), vehicle: saline with Tween-80): 128 % of control
T/C (dose: 178.0 mg/kg/injection, schedule: Q01DX009 (ip), vehicle: saline with Tween-80): 133 % of control
T/C (dose: 188.0 mg/kg/injection, schedule: Q01DX009 (ip), vehicle: saline with Tween-80): 142 % of control
T/C [2]: 138 % of control
T/C (dose: 266.0 mg/kg/injection, schedule: Q01DX009 (ip), vehicle: saline with Tween-80): 147 % of control (2×)
survivor count [9]: 6 of 6
survivor count (dose: 600.0 mg/kg/injection, schedule: Q01DX009 (ip), vehicle: saline with Tween-80): 6 of 6

O=C1CSC(=O)N1c1cccc(Cl)c1
survivor count (dose: 1.56 mg/kg/injection, schedule: Q01DX009 (ip), vehicle: saline): 6 of 6
survivor count (dose: 3.12 mg/kg/injection, schedule: Q01DX009 (ip), vehicle: saline): 5 of 6
survivor count (dose: 6.25 mg/kg/injection, schedule: Q01DX009 (ip), vehicle: saline): 6 of 6
T/C (dose: 12.5 mg/kg/injection, schedule: Q01DX009 (ip), vehicle: saline): 90, 94, 99, 124 % of control
survivor count [13]: 6 of 6
survivor count [6]: 5 of 6
survivor count [2]: 6 of 6

COc1cccc2c1C(=O)c1c(O)c3c(c(O)c1C2=O)C[C@@](O)(C(=O)CO)C[C@@H]3OC1CC(NC(=S)Nc2ccc3ccccc3c2)C(O)C(C)O1 (stereo partly specified)
T/C [7]: 126 % of control
T/C [8]: 133 % of control

CN1C(=O)N(c2cc(Cl)cc(Cl)c2)C(=N)C1=S
survivor count (dose: 240.0 mg/kg/injection, schedule: Q01DX005 (ip), vehicle: Klucel + Tween-80): 6 of 6

COc1cc2cc(-c3ccc(OC(C)C)c(OC)c3)[n+](C)cc2cc1OC
survivor count [14]: 0 of 6

S=P(N1CCCC1)(N1CC1)N1CC1
T/C (dose: 5.0 mg/kg/injection, schedule: Q01DX009 (ip), vehicle: saline): 144 % of control
T/C (dose: 16.5 mg/kg/injection, schedule: Q04DX003 (ip), vehicle: saline with Tween-80): 140 % of control

O=[N+]([O-])C(Br)(CO)CO
survivor count [13]: 3 of 6
survivor count (dose: 50.0 mg/kg/injection, schedule: Q01DX009 (ip), vehicle: saline): 0 of 6
survivor count [7]: 0 of 6

CC1=Nc2ccc(C(F)(F)F)cc2NC(=O)C1
survivor count (dose: 50.0 mg/kg/injection, schedule: Q01DX005 (ip), vehicle: Klucel (hydroxypropylcellulose) (HPC)): 4 of 6

CC(=O)Nc1c(-c2ccccc2)[nH]c2ccccc12
survivor count (dose: 200.0 mg/kg/injection, schedule: Q01DX001 (ip), vehicle: saline with Tween-80): 4 of 6
survivor count [14]: 0 of 6

CN(C)C1C(O)C2Oc3c(cc(O)c4c3C(=O)c3cc5c(c(O)c3C4=O)C(OCCN)CC(C)(O)C5)C(C)(O2)C1O (stereo unspecified)
T/C (dose: 80.0 mg/kg/injection, schedule: Q01DX009 (ip), vehicle: other): 142 % of control
survivor count (dose: 160.0 mg/kg/injection, schedule: Q01DX009 (ip), vehicle: other): 1 of 6
